Results deposited as PubChem BioAssay AID1159578 (Peter MacCallum Cancer Centre, 2015)

- Screen: 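siRNA pools altering how lymphatic endothelial cells close a scratch wound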 (primary screen)
- Cell system: human lymphatic endothelial cells
- Knock-down reagent: siRNA pool against human genes, 40 nM
- Timing: 48 h after transfection
- Measurement: 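High-content imaging of dye-stained cells in a scratch assay measures filled wound area and nuclei per well; duplicate means given as ratio to mock and robust z-score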
- Reading the numbers: migration robust z-score: higher = faster migration into the scratch; migration relative to mock: higher = more scratch area covered than mock; nuclei per well: higher = more cells in the well
- Call rule: 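Pools averaging fewer than 3300 nuclei are never called; remaining pools count as changed when migration robust z lies outside -2 to 2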
- Meaning of the calls: active = migration changed; inactive = no migration change, or too few cells
Shown is an unselected part of about 18,000 deposited reagents. Of all reagents, about 1,030 (5.7%) are marked active. 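Inactive calls also include pools with fewer than 3300 nuclei, whose migration was not assessed.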 The raw values are shown without normalisation. Reagent sequences are not shown.

| gene | migration robust z-score | migration class with cell-count check | migration relative to mock | nuclei per well, duplicate mean | Outcome |
| --- | --- | --- | --- | --- | --- |
| CANT1 (calcium activated nucleotidase 1) | 0.6 | migration z between -2 and 2; enough cells | 0.92 | 6368 | inactive |
| ZNF606 (zinc finger protein 606) | -0.68 | migration z between -2 and 2; enough cells | 0.7 | 7126 | inactive |
| CT47A1 (cancer/testis antigen family 47 member A1) | -2.2 | migration z below -2; enough cells | 0.32 | 5746 | active |
| BPIFC (BPI fold containing family C) | 0.25 | migration z between -2 and 2; enough cells | 0.95 | 5292 | inactive |
| ZNF415 (zinc finger protein 415) | 1.35 | migration z between -2 and 2; enough cells | 1.23 | 5651 | inactive |
| TIMP1 (TIMP metallopeptidase inhibitor 1) | 0.23 | migration z between -2 and 2; enough cells | 0.85 | 5187 | inactive |
| RNF212 (ring finger protein 212) | -0.04 | migration z between -2 and 2; enough cells | 0.88 | 6249 | inactive |
| FYN (FYN proto-oncogene, Src family tyrosine kinase) | -0.31 | migration z between -2 and 2; enough cells | 0.74 | 6221 | inactive |
| IL11RA (interleukin 11 receptor subunit alpha) | 0.13 | migration z between -2 and 2; enough cells | 0.83 | 6842 | inactive |
| HCN3 | -0.08 | migration z between -2 and 2; enough cells | 0.79 | 6266 | inactive |
| SUGP1 (SURP and G-patch domain containing 1) | 1.75 | migration z between -2 and 2; enough cells | 1.34 | 5096 | inactive |
| CARD8 (caspase recruitment domain family member 8) | -0.78 | migration z between -2 and 2; enough cells | 0.68 | 6174 | inactive |
| MMADHC (metabolism of cobalamin associated D) | -1.31 | migration z between -2 and 2; enough cells | 0.54 | 5496 | inactive |
| UBTFL7 (UBTF like 7 (pseudogene)) | 0.68 | migration z between -2 and 2; enough cells | 0.94 | 5687 | inactive |

Quoted from the listing for reference:
| gene | migration robust z-score | migration class with cell-count check | migration relative to mock | nuclei per well, duplicate mean | Outcome |
| --- | --- | --- | --- | --- | --- |
| HCN3 | -0.08 | migration z between -2 and 2; enough cells | 0.79 | 6266 | inactive |
| SUGP1 (SURP and G-patch domain containing 1) | 1.75 | migration z between -2 and 2; enough cells | 1.34 | 5096 | inactive |

The list goes on.
| gene | migration robust z-score | migration class with cell-count check | migration relative to mock | nuclei per well, duplicate mean | Outcome |
| --- | --- | --- | --- | --- | --- |
| ADAMTSL4 (ADAMTS like 4) | 0.52 | migration z between -2 and 2; enough cells | 1.02 | 6706 | inactive |
| PLAA (phospholipase A2 activating protein) | -1.72 | migration z between -2 and 2; enough cells | 0.48 | 3834 | inactive |
| TAS2R42 (taste 2 receptor member 42) | 2.06 | migration z above 2; enough cells | 1.42 | 6043 | active |
| RAB1B (RAB1B, member RAS oncogene family) | -0.2 | migration z between -2 and 2; enough cells | 0.76 | 4178 | inactive |
| MASP1 (MBL associated serine protease 1) | -0.88 | migration z between -2 and 2; enough cells | 0.64 | 5260 | inactive |
| GALNT8 (polypeptide N-acetylgalactosaminyltransferase 8) | 0.18 | migration z between -2 and 2; enough cells | 0.84 | 5204 | inactive |
| C3AR1 (complement C3a receptor 1) | 0.65 | migration z between -2 and 2; enough cells | 0.93 | 5486 | inactive |
| PDE8A (phosphodiesterase 8A) | 1.19 | migration z between -2 and 2; enough cells | 1.04 | 4552 | inactive |
| KIF14 (kinesin family member 14) | -1.17 | migration z between -2 and 2; enough cells | 0.58 | 4656 | inactive |
